From PMC10279913
No constants are given. Whether binding was seen depends on the method and setting. In cells and extracts the contact can be indirect. Here binding means that the protein was enriched with, or labelled near, the bait; the list need not be complete. For some of these results: Tags and fused reporters may be left off the sequences shown.

The chains behind the UniProt entries cited, without tags or fusion partners. Where a name states a change or a piece, a line headed by the entry shows the natural chain unless it says otherwise.
UniProt Q9N536: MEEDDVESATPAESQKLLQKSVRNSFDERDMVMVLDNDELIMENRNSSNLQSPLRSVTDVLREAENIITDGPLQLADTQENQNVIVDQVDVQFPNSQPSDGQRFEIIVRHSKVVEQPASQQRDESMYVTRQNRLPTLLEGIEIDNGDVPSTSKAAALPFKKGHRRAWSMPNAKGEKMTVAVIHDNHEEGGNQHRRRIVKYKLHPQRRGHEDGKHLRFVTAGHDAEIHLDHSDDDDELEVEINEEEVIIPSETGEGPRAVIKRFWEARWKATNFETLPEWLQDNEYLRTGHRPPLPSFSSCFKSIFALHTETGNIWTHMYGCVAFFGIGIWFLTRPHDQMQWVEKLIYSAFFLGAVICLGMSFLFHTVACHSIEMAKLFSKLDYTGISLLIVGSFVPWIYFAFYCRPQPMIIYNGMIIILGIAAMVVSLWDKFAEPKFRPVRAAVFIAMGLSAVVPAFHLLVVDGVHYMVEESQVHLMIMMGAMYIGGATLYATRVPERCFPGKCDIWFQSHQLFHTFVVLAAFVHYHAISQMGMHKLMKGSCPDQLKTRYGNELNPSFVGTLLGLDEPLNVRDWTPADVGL
UniProt P48166: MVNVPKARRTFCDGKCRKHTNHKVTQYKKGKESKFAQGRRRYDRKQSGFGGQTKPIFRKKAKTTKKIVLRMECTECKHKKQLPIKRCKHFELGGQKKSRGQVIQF
UniProt Q22352: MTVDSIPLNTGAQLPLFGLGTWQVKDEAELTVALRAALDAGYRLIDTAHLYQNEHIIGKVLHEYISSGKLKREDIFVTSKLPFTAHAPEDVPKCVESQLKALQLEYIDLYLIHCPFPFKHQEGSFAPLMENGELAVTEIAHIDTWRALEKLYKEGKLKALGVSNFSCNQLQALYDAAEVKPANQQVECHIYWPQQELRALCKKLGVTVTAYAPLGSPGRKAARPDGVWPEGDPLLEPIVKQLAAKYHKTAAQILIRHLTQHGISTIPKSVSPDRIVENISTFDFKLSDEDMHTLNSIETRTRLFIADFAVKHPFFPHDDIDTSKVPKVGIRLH
UniProt P91871: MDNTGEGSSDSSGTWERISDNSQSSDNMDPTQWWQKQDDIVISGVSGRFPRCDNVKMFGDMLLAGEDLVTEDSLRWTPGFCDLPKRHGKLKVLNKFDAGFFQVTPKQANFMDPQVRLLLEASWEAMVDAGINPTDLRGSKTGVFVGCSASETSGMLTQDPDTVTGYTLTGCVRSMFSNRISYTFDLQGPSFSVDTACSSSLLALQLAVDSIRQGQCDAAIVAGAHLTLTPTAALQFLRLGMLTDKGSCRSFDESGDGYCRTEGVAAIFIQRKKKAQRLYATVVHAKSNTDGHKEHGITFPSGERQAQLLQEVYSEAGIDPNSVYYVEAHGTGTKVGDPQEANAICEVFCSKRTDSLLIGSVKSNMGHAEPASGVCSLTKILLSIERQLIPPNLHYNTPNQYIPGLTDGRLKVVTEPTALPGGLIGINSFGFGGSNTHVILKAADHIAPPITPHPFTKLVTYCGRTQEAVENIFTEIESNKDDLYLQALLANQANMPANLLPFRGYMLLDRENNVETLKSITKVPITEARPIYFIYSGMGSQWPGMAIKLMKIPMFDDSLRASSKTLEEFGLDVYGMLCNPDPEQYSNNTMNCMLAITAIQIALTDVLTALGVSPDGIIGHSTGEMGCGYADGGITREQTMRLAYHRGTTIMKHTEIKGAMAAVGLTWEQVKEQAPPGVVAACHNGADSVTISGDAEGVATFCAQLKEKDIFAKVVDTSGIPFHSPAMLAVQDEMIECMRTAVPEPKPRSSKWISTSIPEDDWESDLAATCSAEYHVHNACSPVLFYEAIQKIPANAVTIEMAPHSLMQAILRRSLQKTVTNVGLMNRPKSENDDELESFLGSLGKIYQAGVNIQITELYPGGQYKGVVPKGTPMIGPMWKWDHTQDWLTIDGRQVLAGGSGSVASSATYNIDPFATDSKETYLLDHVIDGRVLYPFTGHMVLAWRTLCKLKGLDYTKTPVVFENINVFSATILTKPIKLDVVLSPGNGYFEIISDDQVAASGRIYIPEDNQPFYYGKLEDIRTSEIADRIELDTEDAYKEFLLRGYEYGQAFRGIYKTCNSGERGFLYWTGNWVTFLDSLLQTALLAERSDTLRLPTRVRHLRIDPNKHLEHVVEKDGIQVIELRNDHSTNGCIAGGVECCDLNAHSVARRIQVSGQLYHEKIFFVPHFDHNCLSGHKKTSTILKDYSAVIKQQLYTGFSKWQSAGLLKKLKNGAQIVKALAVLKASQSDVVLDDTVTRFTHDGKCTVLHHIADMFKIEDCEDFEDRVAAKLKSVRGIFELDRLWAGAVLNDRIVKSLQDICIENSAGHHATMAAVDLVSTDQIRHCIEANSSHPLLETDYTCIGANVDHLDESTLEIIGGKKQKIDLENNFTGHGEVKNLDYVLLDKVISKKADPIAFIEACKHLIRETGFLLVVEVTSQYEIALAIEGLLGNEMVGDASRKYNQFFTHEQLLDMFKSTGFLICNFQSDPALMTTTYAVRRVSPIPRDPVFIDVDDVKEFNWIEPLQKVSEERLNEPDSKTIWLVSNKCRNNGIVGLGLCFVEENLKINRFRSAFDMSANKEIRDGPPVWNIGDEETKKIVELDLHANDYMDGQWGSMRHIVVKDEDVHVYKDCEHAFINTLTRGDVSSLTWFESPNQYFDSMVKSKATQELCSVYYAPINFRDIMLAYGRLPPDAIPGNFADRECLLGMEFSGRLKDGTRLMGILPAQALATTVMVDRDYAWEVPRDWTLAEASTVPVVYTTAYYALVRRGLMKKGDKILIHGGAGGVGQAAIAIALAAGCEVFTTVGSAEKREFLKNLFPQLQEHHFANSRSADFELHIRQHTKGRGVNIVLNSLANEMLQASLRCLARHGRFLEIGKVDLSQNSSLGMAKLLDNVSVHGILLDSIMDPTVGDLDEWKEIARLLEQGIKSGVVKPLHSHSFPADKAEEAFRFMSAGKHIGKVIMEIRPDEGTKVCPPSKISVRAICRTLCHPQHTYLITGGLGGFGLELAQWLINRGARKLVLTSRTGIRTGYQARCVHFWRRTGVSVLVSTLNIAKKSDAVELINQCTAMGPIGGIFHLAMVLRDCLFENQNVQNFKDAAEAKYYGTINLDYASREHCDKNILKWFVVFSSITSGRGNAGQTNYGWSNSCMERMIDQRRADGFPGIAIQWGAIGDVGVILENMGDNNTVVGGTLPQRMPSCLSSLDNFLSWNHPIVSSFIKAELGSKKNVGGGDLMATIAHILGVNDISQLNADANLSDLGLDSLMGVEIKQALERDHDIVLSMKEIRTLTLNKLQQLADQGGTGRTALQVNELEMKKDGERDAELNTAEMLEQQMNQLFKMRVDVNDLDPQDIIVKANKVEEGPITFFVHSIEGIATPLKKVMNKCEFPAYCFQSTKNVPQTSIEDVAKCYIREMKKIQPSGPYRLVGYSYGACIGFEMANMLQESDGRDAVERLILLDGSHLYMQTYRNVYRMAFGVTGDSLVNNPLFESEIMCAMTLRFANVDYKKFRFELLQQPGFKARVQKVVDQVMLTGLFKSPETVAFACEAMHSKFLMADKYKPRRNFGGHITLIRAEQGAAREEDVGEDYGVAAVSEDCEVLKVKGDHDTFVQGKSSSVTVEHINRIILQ
UniProt Q23315: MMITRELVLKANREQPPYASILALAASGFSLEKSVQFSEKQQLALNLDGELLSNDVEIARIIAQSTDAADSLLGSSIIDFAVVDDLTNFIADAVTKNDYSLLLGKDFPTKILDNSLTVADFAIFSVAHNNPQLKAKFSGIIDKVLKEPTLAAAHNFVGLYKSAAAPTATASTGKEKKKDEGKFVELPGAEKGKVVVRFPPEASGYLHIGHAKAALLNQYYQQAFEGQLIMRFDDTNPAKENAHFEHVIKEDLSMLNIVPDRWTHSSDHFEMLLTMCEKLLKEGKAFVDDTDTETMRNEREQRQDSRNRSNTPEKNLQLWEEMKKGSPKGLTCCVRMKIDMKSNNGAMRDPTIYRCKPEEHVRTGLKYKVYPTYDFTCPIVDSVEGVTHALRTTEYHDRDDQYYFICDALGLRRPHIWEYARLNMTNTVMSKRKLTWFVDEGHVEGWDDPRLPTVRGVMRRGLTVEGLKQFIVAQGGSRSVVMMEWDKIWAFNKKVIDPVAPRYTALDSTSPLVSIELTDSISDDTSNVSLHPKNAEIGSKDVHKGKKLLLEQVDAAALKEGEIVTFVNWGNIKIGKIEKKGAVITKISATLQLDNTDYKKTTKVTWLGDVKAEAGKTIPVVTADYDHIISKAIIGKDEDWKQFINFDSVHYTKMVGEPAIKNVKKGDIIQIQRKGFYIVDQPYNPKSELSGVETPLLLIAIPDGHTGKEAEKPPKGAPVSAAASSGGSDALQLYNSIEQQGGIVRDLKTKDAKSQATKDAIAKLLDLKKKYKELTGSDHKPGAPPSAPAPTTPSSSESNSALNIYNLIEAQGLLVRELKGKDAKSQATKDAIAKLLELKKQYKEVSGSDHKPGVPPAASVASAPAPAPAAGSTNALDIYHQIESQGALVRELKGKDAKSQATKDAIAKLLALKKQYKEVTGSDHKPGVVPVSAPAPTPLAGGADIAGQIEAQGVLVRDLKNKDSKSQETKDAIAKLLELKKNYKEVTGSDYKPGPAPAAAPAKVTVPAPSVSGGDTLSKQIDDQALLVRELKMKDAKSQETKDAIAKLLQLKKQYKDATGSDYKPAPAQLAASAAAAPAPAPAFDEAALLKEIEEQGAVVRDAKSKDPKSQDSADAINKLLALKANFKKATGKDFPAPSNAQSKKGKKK
UniProt Q5TKB2: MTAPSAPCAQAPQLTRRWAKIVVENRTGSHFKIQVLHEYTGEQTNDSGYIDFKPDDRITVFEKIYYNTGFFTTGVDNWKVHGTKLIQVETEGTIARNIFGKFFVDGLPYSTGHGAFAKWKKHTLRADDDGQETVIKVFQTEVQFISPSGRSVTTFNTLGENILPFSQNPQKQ
UniProt P91398: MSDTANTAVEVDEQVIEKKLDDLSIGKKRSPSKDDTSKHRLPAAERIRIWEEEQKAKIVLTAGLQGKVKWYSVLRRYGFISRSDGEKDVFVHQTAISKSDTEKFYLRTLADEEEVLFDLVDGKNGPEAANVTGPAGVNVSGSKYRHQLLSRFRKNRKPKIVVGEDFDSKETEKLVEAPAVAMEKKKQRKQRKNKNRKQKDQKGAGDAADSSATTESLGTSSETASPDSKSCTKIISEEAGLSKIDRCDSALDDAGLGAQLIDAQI
UniProt Q20121: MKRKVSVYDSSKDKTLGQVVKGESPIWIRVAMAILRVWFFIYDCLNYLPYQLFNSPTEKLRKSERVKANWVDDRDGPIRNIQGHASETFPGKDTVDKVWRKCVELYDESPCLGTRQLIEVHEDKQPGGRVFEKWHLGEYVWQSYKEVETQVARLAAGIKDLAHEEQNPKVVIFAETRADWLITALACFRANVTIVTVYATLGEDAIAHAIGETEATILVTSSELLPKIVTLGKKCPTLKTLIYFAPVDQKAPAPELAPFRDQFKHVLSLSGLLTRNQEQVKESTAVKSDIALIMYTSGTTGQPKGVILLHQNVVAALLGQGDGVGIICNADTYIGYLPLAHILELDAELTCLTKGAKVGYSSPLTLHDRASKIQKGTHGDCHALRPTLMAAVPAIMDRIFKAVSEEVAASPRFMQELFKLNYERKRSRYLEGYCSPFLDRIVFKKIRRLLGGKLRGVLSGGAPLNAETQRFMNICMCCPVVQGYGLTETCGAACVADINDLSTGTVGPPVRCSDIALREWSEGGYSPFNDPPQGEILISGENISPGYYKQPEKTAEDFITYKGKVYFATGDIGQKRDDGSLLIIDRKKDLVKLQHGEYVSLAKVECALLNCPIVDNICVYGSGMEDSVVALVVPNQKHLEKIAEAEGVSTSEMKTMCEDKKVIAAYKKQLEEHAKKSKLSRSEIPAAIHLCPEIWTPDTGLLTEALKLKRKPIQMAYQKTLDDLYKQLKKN
UniProt Q21351: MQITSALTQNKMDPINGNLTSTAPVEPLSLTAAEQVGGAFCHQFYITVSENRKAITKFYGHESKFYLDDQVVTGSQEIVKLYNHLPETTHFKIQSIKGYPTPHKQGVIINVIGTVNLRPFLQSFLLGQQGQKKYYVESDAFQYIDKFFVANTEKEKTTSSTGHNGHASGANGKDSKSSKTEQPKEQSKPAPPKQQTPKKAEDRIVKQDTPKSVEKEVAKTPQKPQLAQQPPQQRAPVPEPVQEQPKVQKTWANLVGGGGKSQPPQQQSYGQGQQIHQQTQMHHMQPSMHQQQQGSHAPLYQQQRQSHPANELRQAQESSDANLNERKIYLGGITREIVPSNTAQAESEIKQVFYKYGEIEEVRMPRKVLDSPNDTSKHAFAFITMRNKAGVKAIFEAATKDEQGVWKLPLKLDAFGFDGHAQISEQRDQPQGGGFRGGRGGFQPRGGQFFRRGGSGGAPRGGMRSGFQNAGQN
UniProt P52011: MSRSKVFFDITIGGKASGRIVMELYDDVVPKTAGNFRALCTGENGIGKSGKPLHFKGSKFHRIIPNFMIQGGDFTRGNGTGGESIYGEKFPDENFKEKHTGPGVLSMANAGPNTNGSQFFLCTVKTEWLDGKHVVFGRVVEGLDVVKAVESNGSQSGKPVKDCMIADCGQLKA

T1: HA::AdipoR2 (human) (UniProt Q86V24)
T1 sequence: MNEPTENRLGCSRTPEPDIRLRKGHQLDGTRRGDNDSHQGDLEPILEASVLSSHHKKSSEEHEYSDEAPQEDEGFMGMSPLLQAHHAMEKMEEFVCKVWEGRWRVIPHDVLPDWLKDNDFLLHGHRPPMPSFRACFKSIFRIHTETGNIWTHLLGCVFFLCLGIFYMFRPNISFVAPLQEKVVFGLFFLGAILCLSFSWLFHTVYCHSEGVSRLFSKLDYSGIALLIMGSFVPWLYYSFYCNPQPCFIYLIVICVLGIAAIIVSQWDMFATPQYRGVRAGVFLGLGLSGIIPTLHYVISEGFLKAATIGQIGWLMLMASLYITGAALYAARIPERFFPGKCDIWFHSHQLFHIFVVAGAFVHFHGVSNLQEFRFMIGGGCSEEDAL


What was measured:
HA::PAQR-2 (C. elegans) = HA::PAQR-2 (C. elegans) (UniProt Q9N536); experiment: affinity purification with mass spectrometry; anti-HA immunoprecipitation (rabbit mAb C29F4 + protein A-agarose, 1 h, 4 °C) from lysates of whole worms carrying HA::PAQR-2; 25 mM Tris pH 7.5, 300 mM NaCl, 0.1% NP-40, no protease inhibitor; eluted with 0.2 M glycine pH 2.5; 2 IPs; control: worms without HA-tagged protein
HA::AdipoR2 (human) = target: T1, HA::AdipoR2 (human); experiment: affinity purification with mass spectrometry; anti-HA immunoprecipitation (rabbit mAb C29F4 + protein A-agarose, 3 h) from lysates of HEK293 cells stably expressing HA-tagged AdipoR2; 25 mM Tris pH 7.5, 300 mM NaCl, 0.1% NP-40; eluted with 0.2 M glycine pH 2.5; 4 IPs; control: cells without HA-tagged protein

binding (HA::PAQR-2 (C. elegans)) | binding (HA::AdipoR2 (human)) | Molecule
binds |  | RPL-36.A (from UniProt P48166 1-105)
binds |  | EXC-15 (from UniProt Q22352)
binds |  | UNC-52 (from UniProt Q06561 23-3375)
binds |  | VGLN-1 (from UniProt Q17832)
binds |  | FASN-1 (from UniProt P91871) (enzyme)
binds |  | PUD-1.2 (from UniProt G5EET8)
binds |  | EARS-1 (from UniProt Q23315) (enzyme)
binds |  | ACDH-8 (from UniProt Q21243)
binds |  | PUD-3 (from UniProt Q5TKB2)
binds |  | CEY-3 (from UniProt P91398)
binds |  | ACS-4 (from UniProt Q20121) (enzyme)
binds |  | GTBP-1 (from UniProt Q21351 1-473)
binds |  | Peptidyl-prolyl cis-trans isomerase 3 (from UniProt P52011 1-173) (enzyme)
binds |  | ATP-dependent RNA helicase cgh-1 (enzyme, UniProt Q95YF3 1-430) MSGAEQQQIVPANNGDENWKAGLNLPAKDRRFKTADVTDTKGVEFEDFCLGRDLLMGIFEKGWEKPSPIQEASIGVALTGQDILARAKNGTGKTGAYCIPVIEKIQPALKAIQAMVIVPTRELALQTSQICVELSKHIQLKVMVTTGGTDLRDDIMRLNGTVHLVIATPGRILDLMEKGVAKMEHCKTLVLDEADKLLSQDFQGILDRLINFLPKERQVMLYSATFPNTVTSFMQKHMHKPYEINLMEELTLLGVTQYYAFVQEKQKVHCLNTLFRKLQINQSIIFCNSTQRVELLAKKITEIGYSCYYIHSKMAQNHRNRVFHDFRQGNCRNLVCSDLLTRGIDIQAVNVVINFDFPRNAETYLHRIGRSGRFGHLGVAINLITYEDRHTLRRIEQELRTRIEPIPKTVDPKLYVADQQLVDAADETTA
 | binds | Dolichyl-diphosphooligosaccharide–protein glycosyltransferase (protein, UniProt P39656 43-456) SGPRTLVLLDNLNVRETHSLFFRSLKDRGFELTFKTADDPSLSLIKYGEFLYDNLIIFSPSVEDFGGNINVETISAFIDGGGSVLVAASSDIGDPLRELGSECGIEFDEEKTAVIDHHNYDISDLGQHTLIVADTENLLKAPTIVGKSSLNPILFRGVGMVADPDNPLVLDILTGSSTSYSFFPDKPITQYPHAVGKNTLLIAGLQARNNARVIFSGSLDFFSDSFFNSAVQKAAPGSQRYSQTGNYELAVALSRWVFKEEGVLRVGPVSHHRVGETAPPNAYTVTDLVEYSIVIQQLSNGKWVPFDGDDIQLEFVRIDPFVRTFLKKKGGKYSVQFKLPDVYGVFQFKVDYNRLGYTHLYSSTQVSVRPLQHTQYERFIPSAYPYYASAFSMMLGLFIFSIVFLHMKEKEKSD
binds |  | Fructose-bisphosphate aldolase 1 (enzyme, UniProt P54216 1-366) MASYSQFLTKAQEDELRSIANAIVTPGKGILAADESTGSMDKRLNSIGLENTEENRRKYRQLLFTAGADLNKYISGVIMFHETFYQKTDDGKPFTALLQEQGIIPGIKVDKGVVPMAGTIGEGTTQGLDDLNARCAQYKKDGAQFAKWRCVHKISSTTPSVTALKEIASNLGSRYASICQQNGLVPIVEPEILPDGEHCLARGQKITETVLSYVYHALNEHHVFLEGTLLKPNMVTSGQSFTGEKPSNADIGLATVTALQRGVPSAVPGVVFLSGGQSEEDATLNLNAINQVSGKKPWALTFSYGRALQASCLAKWAGKDENIAAAQEVLLHRAQVNSLASVGKYTGDASADAAASQSLFVANHSY
